In general, pKi refers to the negative decadic logarithm of the Ki, by convention in mol/L.

pKi: −log10 of the molar value. The structures given here were assigned with low confidence; some may be wrong.

The subject of one experiment is MDCK-CA IX cells. Put plainly: Binding of fluorescent CA inhibitor (FITC-CAI) to MDCK-CA IX cells. The settings on record: 48 h.
In a further experiment the target is CA IX (Homo sapiens, UniProt Q16790). The settings on record: read-out: KI value towards CA IX; cited from earlier work.

Regarding `NS(=O)(=O)c1ccc(CNC(=S)Nc2ccc3c(c2)C(=O)OC32c3ccc(O)cc3Oc3cc(O)ccc32)cc1`, the “FITC-CAI binding to cells, hypoxia versus normoxia” value in the experiment on MDCK-CA IX cells is reported as “bound only to hypoxic cells”. For the same compound, the pKi at CA IX is 7.62.
